Assay [1] concerns the target T1, Amine oxidase [flavin-containing] A (Rattus norvegicus, UniProt P21396).
T1 sequence (P21396 whole entry): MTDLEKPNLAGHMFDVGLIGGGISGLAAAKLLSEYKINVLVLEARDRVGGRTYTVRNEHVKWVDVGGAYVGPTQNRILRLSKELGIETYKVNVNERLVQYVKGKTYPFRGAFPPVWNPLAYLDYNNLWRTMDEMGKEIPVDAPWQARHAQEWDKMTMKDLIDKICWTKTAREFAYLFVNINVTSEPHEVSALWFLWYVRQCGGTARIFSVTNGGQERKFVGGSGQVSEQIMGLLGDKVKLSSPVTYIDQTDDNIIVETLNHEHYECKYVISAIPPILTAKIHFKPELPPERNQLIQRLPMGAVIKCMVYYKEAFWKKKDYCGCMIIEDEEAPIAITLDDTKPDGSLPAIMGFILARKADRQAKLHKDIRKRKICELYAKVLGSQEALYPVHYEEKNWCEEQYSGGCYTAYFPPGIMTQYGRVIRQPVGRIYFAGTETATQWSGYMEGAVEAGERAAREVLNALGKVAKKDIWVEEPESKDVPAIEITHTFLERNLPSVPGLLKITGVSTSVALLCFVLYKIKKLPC
It is filed as mitochondria, Sprague-Dawley, Mitochondria.

Assay [2] addresses T2, Amine oxidase [flavin-containing] B (Rattus norvegicus, UniProt P19643).
T2 sequence (P19643 whole entry): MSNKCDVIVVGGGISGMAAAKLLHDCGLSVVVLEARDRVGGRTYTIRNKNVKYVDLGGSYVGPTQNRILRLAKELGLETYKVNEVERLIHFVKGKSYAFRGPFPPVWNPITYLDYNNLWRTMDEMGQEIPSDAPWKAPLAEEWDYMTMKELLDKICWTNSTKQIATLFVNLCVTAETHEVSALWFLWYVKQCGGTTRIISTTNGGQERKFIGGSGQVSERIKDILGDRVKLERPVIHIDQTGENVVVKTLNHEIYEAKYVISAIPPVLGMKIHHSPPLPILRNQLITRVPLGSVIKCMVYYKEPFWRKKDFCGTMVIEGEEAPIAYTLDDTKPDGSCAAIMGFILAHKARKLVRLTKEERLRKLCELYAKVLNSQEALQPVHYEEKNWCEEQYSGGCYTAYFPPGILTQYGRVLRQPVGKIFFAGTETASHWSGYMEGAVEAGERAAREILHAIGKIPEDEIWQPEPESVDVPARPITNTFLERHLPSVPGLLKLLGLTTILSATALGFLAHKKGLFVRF
It is filed as mitochondria, Sprague-Dawley, Mitochondria.

As for `O=c1ccc2ccc(OS(=O)(=O)c3ccccc3)cc2o1`, the IC50 (commonly the concentration needed to halve the response being measured) in assay [1] is 0.447 µM; in assay [2], 55 µM.
